Results taken from article PMC7375649, “Varicella zoster virus encodes a viral decoy RHIM to inhibit cell death” (PLoS Pathogens, 2020).
No constants are given. Whether binding was seen depends on the method and setting.

Target: YPet-ZBP1_(170-355) (human) (UniProt Q9H171)
Test: sodium dodecyl sulfate agarose gel electrophoresis (SDS-AGE); as a8, but assembled samples incubated with 2% SDS at room temperature for 10 min before electrophoresis; both purified

B1: YPet-ZBP1_(170-355) (domain or fragment)
chain: SGRRAKSASIIYQHNPINMICQNGPNSWISIANSEAIQIGHGNIITRQTVSREDGSAGPRHLPSMAPGDSSTWGTLVDPWGPQDIHMEQSILRRVQLGHSNEMRLHGVPSEGPAHIPPGSPPVSATAAGPEASFEARIPSPGTHPEGEAAQRIHMKSCFLEDATIGNSNKMSISPGVAGPGGVAGS
notes: human ZBP1, RHIM-containing region, residues 170-355; also called YPet-ZBP1 RHIM; source: E. coli BL21(DE3) pLysS, purified from inclusion bodies under denaturing conditions (Ni-NTA)
  binding: no binding (condition: incubation with 2% SDS for 10 min)
